Results taken from publication PMC6499807.
These are yes or no findings as the source states them, for the method shown. Binding seen in cells or lysates may run through a third protein. Some entries that bind do so weakly or less than the wild type.

Amino acid sequences for entries named in this document (tags omitted).
UniProt P40763: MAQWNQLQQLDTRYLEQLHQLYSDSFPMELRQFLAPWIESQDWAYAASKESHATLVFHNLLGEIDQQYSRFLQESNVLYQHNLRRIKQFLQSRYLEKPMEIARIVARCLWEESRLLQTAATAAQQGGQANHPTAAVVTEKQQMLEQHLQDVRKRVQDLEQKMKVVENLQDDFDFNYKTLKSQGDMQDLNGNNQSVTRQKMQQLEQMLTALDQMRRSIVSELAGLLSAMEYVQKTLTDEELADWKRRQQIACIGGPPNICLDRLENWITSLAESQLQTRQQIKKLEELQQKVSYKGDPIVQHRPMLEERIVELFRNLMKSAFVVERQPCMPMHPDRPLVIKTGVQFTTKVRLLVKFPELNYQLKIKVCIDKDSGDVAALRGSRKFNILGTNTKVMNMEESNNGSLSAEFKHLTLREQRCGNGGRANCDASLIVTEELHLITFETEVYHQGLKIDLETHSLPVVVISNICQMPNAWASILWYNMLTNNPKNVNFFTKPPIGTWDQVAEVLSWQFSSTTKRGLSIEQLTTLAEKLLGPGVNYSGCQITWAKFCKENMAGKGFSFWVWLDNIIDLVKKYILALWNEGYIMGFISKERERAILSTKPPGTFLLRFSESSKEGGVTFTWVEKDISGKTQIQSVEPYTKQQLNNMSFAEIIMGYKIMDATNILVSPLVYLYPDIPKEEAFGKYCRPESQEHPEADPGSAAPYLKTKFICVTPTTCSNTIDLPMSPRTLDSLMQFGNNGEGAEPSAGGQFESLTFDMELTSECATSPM
UniProt Q09472: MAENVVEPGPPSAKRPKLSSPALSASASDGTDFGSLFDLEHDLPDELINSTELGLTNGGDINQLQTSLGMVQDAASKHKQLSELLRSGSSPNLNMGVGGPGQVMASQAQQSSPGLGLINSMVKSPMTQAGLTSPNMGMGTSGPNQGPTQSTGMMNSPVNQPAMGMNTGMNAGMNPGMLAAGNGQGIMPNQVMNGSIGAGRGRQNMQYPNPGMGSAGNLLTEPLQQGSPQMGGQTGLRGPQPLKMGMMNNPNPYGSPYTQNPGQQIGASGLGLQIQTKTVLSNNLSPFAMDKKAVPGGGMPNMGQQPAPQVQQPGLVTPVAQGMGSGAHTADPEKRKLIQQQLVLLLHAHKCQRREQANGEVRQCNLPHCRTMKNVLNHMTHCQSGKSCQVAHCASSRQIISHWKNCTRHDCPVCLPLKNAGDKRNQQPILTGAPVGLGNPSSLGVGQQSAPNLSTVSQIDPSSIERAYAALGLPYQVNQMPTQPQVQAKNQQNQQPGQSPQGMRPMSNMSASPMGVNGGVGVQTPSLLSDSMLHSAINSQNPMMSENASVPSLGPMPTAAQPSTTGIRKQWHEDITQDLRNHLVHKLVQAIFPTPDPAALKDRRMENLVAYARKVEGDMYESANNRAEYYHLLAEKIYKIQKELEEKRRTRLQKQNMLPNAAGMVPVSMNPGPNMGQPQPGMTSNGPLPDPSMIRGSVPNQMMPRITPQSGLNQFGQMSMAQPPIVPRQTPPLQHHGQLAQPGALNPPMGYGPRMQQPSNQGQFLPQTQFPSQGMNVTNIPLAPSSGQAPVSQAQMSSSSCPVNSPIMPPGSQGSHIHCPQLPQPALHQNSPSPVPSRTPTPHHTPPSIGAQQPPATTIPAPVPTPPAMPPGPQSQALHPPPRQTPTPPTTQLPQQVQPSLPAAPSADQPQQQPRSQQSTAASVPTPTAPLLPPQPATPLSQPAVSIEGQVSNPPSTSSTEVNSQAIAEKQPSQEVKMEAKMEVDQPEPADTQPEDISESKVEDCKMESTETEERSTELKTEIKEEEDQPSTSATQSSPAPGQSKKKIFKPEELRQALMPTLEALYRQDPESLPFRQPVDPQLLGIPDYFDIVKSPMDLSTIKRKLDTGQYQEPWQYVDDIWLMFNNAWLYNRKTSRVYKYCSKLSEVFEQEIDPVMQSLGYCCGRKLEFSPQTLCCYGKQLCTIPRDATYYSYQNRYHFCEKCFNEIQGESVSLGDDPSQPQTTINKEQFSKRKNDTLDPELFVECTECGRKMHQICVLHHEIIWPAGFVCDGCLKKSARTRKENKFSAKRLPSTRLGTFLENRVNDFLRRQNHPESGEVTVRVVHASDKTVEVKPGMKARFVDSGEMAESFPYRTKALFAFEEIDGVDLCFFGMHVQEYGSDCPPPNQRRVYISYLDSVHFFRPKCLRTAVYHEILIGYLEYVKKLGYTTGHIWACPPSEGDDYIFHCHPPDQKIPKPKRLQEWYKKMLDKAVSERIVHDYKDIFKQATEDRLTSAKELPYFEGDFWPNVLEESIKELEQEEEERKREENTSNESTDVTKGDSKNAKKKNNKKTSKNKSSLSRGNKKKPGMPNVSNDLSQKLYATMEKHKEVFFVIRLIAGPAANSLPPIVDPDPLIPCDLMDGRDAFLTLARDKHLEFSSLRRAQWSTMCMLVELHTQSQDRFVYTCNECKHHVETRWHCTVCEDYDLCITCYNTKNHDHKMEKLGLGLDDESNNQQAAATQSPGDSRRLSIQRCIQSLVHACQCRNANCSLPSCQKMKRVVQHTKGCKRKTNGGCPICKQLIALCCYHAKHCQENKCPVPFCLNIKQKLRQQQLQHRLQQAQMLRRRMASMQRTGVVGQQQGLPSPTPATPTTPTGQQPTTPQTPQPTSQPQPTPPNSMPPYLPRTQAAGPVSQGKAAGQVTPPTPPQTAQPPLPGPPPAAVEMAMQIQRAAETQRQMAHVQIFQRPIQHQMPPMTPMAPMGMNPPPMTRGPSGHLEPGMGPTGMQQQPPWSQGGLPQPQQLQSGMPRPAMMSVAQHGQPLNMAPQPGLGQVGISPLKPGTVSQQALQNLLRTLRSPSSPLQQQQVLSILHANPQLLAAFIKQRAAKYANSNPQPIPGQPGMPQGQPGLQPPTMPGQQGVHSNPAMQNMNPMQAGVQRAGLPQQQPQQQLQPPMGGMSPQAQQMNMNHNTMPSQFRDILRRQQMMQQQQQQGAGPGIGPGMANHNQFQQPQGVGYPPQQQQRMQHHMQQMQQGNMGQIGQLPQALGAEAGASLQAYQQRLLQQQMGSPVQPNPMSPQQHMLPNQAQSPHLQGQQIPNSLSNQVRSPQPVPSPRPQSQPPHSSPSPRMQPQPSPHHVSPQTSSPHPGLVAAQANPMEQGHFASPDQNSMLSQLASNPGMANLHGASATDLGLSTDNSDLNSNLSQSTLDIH

Target: phosphorylated Stat3 (human (endogenous in LN229 and 229R)) (UniProt P40763)
Experiment: co-IP; lysates (IP lysis buffer) of LN229, 229R, 229R Scra and 229R KD_lnc (lnc-TALC knock-down) cells incubated with 5 µg anti-p-Stat3 or anti-p300 overnight at 4 °C, protein A agarose beads, western blot for the other protein; both directions

- binding: binds
Substance: histone acetyltransferase p300 (from UniProt Q09472 1-2414)
